These results are taken from article PMC8068687.

No constants are given. Whether binding was seen depends on the method and setting.

The target in assay [1] is FhuF, ferric-siderophore reductase from E. coli K-12 (residues 18-262) (E. coli K-12) (UniProt P39405). Nature of the assay: SEC-SAXS; in-line HPLC, Shodex KW402.5-4F column, 50 uL of 8.9 mg mL^-1 SEC-purified protein injected; 20 mM potassium phosphate pH 7.6, 150 mM NaCl; both purified.
For assay [2] the target is unchanged. Nature of the assay: SEC; purified FhuF on a SEC column (Superdex 75 10/300 GL in the methods); apparent molar mass ca 26.9 kDa against 28 kDa expected; both purified.

B1: FhuF, ferric-siderophore reductase from E. coli K-12 (residues 18-262) (enzyme, UniProt P39405 18-262)
chain: LQPQDPTLAQAVRATIAKHREHLLEFIRLDEPAPLNAMTLAQWSSPNVLSSLLAVYSDHIYRNQPMMIRENKPLISLWAQWYIGLMVPPLMLALLTQEKALDVSPEHFHAEFHETGRVACFWVDVCEDKNATPHSPQHRMETLISQALVPVVQALEATGEINGKLIWSNTGYLINWYLTEMKQLLGEATVESLRHALFFEKTLTNGEDNPLWRTVVLRDGLLVRRTCCQRYRLPDVQQCGDCTLK
For B1, the figures for the binding entry in assay [1] and in assay [2] were “no binding (tested: 8.9 mg mL^-1 injected)” and “no binding”, respectively.
